Measured values as given in US20020115167A1.
Results are given in words; binding and its absence hold for the method and conditions named. In cells and extracts the contact can be indirect. Some results given as binding are weak or reduced against the parent protein; the word gives no strength. Sequences can lack the tags named with a protein.

Biological target: Drosophila PAR-1 (dPAR-1), the Dishevelled-associated kinase (Drosophila)
Assay: GST pull-down from Clone-8 cell lysates with or without Wingless stimulation

binding: binds
Binder: QRLQVRKKPQRRKKRAPSMSRTSSYSSITDSTMSLN (peptide, not shown: a dimerising Fc or GST) [GST-DM5 (GST fusion of the 36 amino acid segment DM5 of Dsh)]
